Assay [1] addresses human CD94 protein (human) (UniProt Q13241). Nature of the assay: OCTET BLI, Fab on human CD94 protein.
The target of assay [2] is human CD94 expressed on cells (human primary NK cells in PBMCs; HEK cells expressing human CD94) (human) (UniProt Q13241). Nature of the assay: competition assay, flow cytometry on CD3-CD56+ NK cells in healthy donor PBMCs; AF647-labelled 18H3 titrated, incubated concurrently with a fixed concentration of 1M4 or Mouse IgG1, or of 1E4 or Human IgG1. Background: Flow cytometry measures light scatter and fluorescence of single cells or particles in a stream.

By UniProt entry, the sequences of proteins in these tests, tags left out. Where a name states a change or a piece, a line headed by the entry shows the natural chain unless it says otherwise. Residues count along the entry.
UniProt Q13241: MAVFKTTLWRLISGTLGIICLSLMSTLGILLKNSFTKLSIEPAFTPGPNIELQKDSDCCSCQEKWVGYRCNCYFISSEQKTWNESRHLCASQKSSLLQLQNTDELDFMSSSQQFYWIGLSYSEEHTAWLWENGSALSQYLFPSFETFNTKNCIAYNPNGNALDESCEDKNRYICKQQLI
human CD94 protein: residues 34-179 of Q13241

For assay [3] the target is unchanged. Nature of the assay: flow cytometry, hybridoma supernatant on human primary NK cells.

Experimental findings from patent US20250197505A1 are described below.

These are yes or no findings as the source states them, for the method shown. Some results given as binding are weak or reduced against the parent protein; the word gives no strength.

B1: Ab.34 Fab (Fab, V domains shown)
VH: EVQLLESGGGLVKPGGSLRLSCAASGFTFSSYSMNWVRQAPGKGLEWVSSISTSSNFIYYADSVKGRFTISRDNAKNSLYLQMNSLRAEDTAVYYCARDLGRYYYYMDVWGKGTTVTVSS
VL: DIVMTQSPSSLSASVGDRVTITCRASQSISSWLAWYQQKPGKAPKSLIYAASSLQSGVPSKFSGSGSGTDFTLTISSLQPEDVATYYCQKYNSYPFTFGPGTKVDIK
With B1, the binding result in assay [1] was “binds”.

B2: anti-CD94 antibody clone 18H3 (antibody, V domains shown)
VH: EVQLVQSGAEVKKPGESLKISCKGSGYRFTSYWIGWVRQMPGKGLEWMGIIYPGDSDTRYSPSFQGQVIISADKSITTAFLQWSSLKASDTAMYYCARPFDYGGSPGYFDYWGQGTLVTVSS
VL: DIQMTQSPSTLSASVGDRVTITCRASQSIRSWLAWYQQKPGKAPKLLIYKASSLESGVPSRFSGSGSGTEFTLTISSLQPDDFATYYCQQYNTFWTFGQGTKVEIK
For B2, the binding result in assay [2] and in assay [3] was “binds” throughout.
